Assay results from the supplement of paper PMC12067093, “Discovery and optimisation of a covalent ligand for TRIM25 and its application to targeted protein ubiquitination” (Chemical Science, 2025).
The list shows a part of the results.

By UniProt entry, the sequences of proteins in these tests, tags left out. Where a name states a change or a piece, a line headed by the entry shows the natural chain unless it says otherwise.
UniProt O95684: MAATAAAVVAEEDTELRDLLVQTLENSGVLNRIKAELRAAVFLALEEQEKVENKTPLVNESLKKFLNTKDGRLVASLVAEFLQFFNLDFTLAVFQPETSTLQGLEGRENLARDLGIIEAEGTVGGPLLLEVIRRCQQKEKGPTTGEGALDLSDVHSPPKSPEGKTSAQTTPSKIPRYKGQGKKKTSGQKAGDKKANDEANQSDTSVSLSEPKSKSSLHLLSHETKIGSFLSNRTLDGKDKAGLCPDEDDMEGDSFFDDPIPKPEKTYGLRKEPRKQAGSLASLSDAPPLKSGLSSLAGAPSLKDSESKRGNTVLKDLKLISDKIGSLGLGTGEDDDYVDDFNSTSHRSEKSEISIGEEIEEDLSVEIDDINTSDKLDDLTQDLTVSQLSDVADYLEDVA
UniProt P55899: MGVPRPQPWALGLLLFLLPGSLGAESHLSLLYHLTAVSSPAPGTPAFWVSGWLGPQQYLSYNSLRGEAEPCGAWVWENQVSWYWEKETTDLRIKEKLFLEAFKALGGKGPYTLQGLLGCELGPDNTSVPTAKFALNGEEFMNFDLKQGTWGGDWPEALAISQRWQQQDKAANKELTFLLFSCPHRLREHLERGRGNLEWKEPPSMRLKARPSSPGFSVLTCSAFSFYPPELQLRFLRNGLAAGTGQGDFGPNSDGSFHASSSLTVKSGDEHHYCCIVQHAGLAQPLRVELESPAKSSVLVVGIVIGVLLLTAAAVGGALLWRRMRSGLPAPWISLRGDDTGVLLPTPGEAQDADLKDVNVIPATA
UniProt Q9UKT8: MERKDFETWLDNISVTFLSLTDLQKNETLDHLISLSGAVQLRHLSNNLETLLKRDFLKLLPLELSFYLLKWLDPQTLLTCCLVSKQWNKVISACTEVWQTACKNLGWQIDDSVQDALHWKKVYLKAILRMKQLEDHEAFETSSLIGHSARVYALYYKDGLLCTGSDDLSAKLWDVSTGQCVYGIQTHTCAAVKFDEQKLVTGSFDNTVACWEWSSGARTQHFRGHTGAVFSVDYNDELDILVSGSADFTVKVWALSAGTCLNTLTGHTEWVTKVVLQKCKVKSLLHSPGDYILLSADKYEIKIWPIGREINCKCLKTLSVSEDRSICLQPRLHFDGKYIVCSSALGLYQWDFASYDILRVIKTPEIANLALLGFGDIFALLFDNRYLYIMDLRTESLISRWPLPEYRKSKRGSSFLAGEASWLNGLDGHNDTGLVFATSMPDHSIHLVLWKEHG
UniProt Q86UX7, whole entry, looked up: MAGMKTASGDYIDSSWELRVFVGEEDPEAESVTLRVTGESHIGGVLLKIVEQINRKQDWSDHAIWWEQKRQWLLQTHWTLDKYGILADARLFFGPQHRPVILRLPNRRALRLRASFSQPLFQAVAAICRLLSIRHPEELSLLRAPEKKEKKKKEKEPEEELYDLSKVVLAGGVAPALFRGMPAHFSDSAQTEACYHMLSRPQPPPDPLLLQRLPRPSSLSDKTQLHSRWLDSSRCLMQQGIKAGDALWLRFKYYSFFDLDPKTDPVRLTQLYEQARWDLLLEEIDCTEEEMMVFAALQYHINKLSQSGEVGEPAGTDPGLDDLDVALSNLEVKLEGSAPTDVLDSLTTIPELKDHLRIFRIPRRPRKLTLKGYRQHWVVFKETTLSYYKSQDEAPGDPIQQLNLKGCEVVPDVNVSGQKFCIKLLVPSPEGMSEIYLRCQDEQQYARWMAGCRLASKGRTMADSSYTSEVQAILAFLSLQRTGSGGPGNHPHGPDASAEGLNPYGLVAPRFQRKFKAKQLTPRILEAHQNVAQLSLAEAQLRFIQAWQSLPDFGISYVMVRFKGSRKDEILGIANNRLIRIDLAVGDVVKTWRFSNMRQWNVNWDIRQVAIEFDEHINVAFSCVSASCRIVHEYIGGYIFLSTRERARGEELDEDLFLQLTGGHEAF
UniProt Q8NEZ5: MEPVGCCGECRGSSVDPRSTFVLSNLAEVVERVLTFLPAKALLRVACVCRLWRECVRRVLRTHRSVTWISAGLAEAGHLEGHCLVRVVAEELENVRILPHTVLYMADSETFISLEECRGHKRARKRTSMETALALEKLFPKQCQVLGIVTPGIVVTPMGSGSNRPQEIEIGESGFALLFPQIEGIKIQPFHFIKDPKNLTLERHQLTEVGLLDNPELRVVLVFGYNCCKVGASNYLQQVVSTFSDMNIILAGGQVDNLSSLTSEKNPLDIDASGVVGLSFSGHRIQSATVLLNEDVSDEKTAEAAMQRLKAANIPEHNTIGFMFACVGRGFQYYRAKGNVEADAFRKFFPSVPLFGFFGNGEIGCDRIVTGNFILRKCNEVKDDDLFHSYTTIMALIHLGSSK
UniProt Q96K12: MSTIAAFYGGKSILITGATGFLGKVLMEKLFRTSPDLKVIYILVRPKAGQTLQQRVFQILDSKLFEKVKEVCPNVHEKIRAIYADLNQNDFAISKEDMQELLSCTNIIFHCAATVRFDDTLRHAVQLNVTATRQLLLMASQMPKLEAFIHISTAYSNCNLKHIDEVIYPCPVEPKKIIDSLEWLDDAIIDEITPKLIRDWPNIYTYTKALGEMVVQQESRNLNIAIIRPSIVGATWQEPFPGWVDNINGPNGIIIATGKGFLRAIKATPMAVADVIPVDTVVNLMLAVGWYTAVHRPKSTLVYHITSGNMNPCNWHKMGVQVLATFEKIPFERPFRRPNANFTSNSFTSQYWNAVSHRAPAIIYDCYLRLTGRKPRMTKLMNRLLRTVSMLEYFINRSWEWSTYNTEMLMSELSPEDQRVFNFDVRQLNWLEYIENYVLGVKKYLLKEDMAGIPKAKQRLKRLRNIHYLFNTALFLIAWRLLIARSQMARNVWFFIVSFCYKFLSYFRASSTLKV
UniProt Q96AC1: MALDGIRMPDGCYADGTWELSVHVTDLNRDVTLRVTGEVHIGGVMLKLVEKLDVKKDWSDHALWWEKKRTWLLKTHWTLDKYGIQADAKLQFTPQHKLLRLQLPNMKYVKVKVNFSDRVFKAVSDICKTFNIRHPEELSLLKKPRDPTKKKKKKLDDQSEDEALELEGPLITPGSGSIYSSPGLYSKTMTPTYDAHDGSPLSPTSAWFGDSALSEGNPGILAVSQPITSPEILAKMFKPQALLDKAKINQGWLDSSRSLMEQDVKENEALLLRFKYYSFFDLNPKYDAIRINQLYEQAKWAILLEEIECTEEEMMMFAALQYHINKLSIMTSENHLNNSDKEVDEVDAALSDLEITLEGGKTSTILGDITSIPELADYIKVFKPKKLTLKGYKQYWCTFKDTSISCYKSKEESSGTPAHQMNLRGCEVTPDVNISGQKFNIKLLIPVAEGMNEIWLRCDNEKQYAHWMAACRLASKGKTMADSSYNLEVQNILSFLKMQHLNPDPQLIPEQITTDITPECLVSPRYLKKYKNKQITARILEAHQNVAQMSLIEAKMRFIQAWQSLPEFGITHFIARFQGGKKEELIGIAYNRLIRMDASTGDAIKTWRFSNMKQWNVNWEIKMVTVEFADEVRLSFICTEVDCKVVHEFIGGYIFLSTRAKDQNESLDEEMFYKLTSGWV
UniProt Q5JSP0: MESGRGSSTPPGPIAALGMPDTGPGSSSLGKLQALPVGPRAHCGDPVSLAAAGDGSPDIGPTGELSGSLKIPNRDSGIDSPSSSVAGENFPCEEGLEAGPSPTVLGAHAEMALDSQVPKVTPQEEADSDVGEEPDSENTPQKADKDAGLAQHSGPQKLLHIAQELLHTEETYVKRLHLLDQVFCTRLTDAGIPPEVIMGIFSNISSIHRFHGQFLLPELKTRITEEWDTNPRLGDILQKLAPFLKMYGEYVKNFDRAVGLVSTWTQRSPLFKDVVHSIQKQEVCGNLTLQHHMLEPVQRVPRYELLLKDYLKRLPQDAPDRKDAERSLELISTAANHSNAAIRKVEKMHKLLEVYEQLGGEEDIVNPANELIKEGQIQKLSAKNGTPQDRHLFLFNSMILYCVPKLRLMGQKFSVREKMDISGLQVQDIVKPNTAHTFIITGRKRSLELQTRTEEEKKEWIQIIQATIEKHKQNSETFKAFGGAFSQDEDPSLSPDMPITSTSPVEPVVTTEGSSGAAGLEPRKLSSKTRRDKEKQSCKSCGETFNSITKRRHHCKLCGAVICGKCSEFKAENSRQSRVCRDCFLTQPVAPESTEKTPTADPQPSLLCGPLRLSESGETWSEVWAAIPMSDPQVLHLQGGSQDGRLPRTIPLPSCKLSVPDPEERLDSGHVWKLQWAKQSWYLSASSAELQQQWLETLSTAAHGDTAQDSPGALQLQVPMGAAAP
UniProt Q8TB52: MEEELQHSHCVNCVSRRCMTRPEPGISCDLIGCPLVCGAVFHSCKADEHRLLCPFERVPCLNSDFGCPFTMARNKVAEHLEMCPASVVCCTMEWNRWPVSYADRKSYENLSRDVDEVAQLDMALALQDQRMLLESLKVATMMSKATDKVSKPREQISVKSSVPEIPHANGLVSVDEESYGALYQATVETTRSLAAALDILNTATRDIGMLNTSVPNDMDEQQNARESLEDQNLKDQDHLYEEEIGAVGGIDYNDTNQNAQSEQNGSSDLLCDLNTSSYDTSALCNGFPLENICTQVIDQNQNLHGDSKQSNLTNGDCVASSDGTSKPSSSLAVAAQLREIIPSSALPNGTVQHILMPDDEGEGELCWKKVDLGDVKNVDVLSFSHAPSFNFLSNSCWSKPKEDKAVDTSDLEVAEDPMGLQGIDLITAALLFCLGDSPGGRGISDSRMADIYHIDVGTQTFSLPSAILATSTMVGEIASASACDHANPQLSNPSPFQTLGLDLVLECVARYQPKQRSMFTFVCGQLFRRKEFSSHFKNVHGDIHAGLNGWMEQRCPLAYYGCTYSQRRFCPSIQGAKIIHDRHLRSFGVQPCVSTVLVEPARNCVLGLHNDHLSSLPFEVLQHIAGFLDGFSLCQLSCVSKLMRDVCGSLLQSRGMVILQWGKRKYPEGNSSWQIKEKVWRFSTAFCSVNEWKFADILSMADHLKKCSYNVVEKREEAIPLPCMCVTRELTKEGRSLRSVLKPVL
UniProt Q9Y324: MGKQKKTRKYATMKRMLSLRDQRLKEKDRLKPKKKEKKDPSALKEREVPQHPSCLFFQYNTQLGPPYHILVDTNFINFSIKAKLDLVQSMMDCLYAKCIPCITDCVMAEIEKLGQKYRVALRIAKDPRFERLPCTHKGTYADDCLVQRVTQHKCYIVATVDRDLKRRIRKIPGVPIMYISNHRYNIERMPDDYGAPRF
UniProt Q9NVI1: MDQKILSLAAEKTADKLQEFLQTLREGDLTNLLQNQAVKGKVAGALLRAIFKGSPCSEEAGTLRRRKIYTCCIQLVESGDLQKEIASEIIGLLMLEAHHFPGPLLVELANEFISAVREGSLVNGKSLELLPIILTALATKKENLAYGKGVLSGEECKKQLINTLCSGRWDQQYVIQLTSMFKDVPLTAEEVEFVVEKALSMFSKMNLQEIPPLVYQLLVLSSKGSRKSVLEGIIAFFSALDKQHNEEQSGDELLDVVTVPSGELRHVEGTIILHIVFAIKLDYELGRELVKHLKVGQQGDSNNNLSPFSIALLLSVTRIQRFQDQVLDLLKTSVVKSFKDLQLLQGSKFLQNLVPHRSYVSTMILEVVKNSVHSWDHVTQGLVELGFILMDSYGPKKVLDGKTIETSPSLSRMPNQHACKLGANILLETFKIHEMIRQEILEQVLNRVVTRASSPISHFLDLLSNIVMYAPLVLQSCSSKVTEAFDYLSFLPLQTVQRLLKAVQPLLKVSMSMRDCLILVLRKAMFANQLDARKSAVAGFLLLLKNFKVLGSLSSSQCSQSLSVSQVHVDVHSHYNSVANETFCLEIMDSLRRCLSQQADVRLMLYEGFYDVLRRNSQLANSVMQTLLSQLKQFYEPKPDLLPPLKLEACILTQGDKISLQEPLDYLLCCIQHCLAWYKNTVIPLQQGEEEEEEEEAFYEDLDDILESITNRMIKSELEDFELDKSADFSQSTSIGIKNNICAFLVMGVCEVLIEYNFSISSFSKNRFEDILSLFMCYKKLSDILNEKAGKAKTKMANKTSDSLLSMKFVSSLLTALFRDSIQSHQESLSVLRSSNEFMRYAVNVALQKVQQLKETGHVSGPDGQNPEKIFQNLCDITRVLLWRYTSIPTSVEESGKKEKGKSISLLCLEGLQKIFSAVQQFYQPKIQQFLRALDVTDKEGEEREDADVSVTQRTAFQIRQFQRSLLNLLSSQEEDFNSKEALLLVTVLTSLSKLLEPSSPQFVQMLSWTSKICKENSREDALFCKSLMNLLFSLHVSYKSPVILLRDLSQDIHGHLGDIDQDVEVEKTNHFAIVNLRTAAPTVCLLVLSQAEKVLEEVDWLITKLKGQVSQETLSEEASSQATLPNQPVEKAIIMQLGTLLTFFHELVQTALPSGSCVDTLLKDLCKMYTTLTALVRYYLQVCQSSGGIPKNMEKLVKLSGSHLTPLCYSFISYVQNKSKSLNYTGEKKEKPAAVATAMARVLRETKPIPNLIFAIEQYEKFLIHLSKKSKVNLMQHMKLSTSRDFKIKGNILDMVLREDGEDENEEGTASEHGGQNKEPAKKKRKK

The targets below were run with Cc1cc(ccc1-c1ccccc1)C(=O)N1CCCN(CC1)C(=O)CCl [compound 10] (assay: probe-labelled cysteine peptide fold change vs DMSO (competition) (log2 fold change); higher = less target engagement (more negative = stronger competition)). Conditions: 50 µM; THP-1; incubation time: 4 h.
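Note: competitive profiling in live THP-1 cells: cysteine peptides tagged with an iodoacetamide desthiobiotin (IA-DTB) probe, intensity after compound treatment relative to DMSO-treated cells.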

Target	probe-labelled cysteine peptide fold change
FGFR1OP_O95684-3_133_TITQLECLLSIGALHFK (UniProt O95684)	-0.497
FCGRT_P55899_182_ELTFLLFSCPHR (UniProt P55899)	0.0669
FBXW2_Q9UKT8_189_LWDVSTGQCVYGIQTHTCAAVK (UniProt Q9UKT8)	0.0932
FERMT3_Q86UX7_128_ASFSQPLFQAVAAICR (UniProt Q86UX7)	0.023
FBXO22_Q8NEZ5_378_CNEVKDDDLFHSYTTIMALIHLGSSK (UniProt Q8NEZ5)	-0.198
FAR2_Q96K12_170_HIDEVIYPCPVEPK (UniProt Q96K12)	0.181
FERMT2_Q96AC1_426_GCEVTPDVNISGQK (UniProt Q96AC1)	-0.013
FGD3_Q5JSP0_184_RLHLLDQVFCTR (UniProt Q5JSP0)	0.0343
FBXO30_Q8TB52_396_NVDVLSFSHAPSFNFLSNSCWSK (UniProt Q8TB52)	-0.488
FCF1_Q9Y324_93_AKLDLVQSMMDCLYAK (UniProt Q9Y324)	-0.137
FANCI_Q9NVI1_594_CLSQQADVR (UniProt Q9NVI1)	-0.0628

Nothing new here: an excerpt of the list.
Target	probe-labelled cysteine peptide fold change
FBXO30_Q8TB52_396_NVDVLSFSHAPSFNFLSNSCWSK (UniProt Q8TB52)	-0.488
FCF1_Q9Y324_93_AKLDLVQSMMDCLYAK (UniProt Q9Y324)	-0.137
